Assay: Crossreactions with the INT-formazan measurement system, incubated without cells
Details: beclometasone 10^−6 mol/l, 1,8-cineol 10^−5 mol/l, INTV 0.5 μg/ml

| Structure (SMILES) | crossreactions with the INT-formazan measurement method |
| --- | --- |
| C[C@H]1C[C@H]2[C@@H]3CCC4=CC(=O)C=C[C@]4(C)[C@@]3(Cl)[C@@H](O)C[C@]2(C)[C@@]1(O)C(=O)CO [beclometasone] | could therefore be excluded |
| CC12CCC(CC1)C(C)(C)O2 [1,8-cineol, 1,3,3-trimethyl-2-oxabicyclo-[2.2.2]-octane] | could therefore be excluded |

— patent US11123323B2, “Monoterpenes for treating respiratory disorders, in particular bronchopulmonary disorders” (Maria Clemetine Martin Klosterfrau Vertriebsqesellschaft MBH, priority 2008, dated 2021)
